In patent US20080057136A1, “Disinfecting Composition and Methods of Making and Using Same” (priority 2003, published 2008):
Some of these results come from one statement about several compounds together.

Test system: Bacillus subtilis (ATCC 19659)
Assay: Time-Kill test (Example 9)
Type: cell-based
Details: Study 509-101

CC(C)O [Isopropanol]
reduction of B. subtilis count: < 6 log10
